Test results from patent US20210293825A1, “METHODS FOR PRECISION THERAPEUTIC TARGETING OF HUMAN CANCER CELL MOTILITY AND KITS THEREOF” (UNITED STATES GOVERNMENT AS REPRESENTED BY THE DEPARTMENT …, priority 2018, published 2021).
These are yes or no findings as the source states them, for the method shown. Some entries that bind do so weakly or less than the wild type. Tags and fused reporters may be left off the sequences shown.

Protein sequences, listed by entry. Tags and fused reporters are not part of them. Lines headed by an entry give the natural chain unless they say otherwise; changes in a name come on top.
UniProt P27652: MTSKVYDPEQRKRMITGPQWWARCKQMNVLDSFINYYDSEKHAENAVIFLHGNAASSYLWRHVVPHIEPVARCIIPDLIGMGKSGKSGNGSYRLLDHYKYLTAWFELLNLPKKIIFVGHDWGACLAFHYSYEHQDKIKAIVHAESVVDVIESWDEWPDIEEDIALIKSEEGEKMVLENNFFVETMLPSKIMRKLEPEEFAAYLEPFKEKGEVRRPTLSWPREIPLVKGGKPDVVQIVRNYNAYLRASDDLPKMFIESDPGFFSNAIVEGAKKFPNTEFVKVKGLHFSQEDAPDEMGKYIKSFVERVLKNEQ

Tests used:
[1] = target: HSP90β/CDC37 heterocomplex in HEK293T cells stably expressing Renilla-HSP90β (LUMIER assay) (UniProt P27652); experiment: LUMIER assay in HEK293T cells
[2] = target: HSP90β/CDC37 heterocomplex in HEK293T cells stably expressing Renilla-HSP90β (LUMIER assay) (UniProt P27652); experiment: LUMIER assay in TGFβ-treated HEK293T cells, with and without 10 µM KBU2046

binding [1]	binding [2]	Binder
binds	–	FLAG-tagged MAP3K6 transfected into HEK293T cells (enzyme, UniProt O95382 1-1288, looked up) MAGPCPRSGAERAGSCWQDPLAVALSRGRQLAAPPGRGCARSRPLSVVYVLTREPQPGLEPREGTEAEPLPLRCLREACAQVPRPRPPPQLRSLPFGTLELGDTAALDAFYNADVVVLEVSSSLVQPSLFYHLGVRESFSMTNNVLLCSQADLPDLQALREDVFQKNSDCVGSYTLIPYVVTATGRVLCGDAGLLRGLADGLVQAGVGTEALLTPLVGRLARLLEATPTDSCGYFRETIRRDIRQARERFSGPQLRQELARLQRRLDSVELLSPDIIMNLLLSYRDVQDYSAIIELVETLQALPTCDVAEQHNVCFHYTFALNRRNRPGDRAKALSVLLPLVQLEGSVAPDLYCMCGRIYKDMFFSSGFQDAGHREQAYHWYRKAFDVEPSLHSGINAAVLLIAAGQHFEDSKELRLIGMKLGCLLARKGCVEKMQYYWDVGFYLGAQILANDPTQVVLAAEQLYKLNAPIWYLVSVMETFLLYQHFRPTPEPPGGPPRRAHFWLHFLLQSCQPFKTACAQGDQCLVLVLEMNKVLLPAKLEVRGTDPVSTVTLSLLEPETQDIPSSWTFPVASICGVSASKRDERCCFLYALPPAQDVQLCFPSVGHCQWFCGLIQAWVTNPDSTAPAEEAEGAGEMLEFDYEYTETGERLVLGKGTYGVVYAGRDRHTRVRIAIKEIPERDSRFSQPLHEEIALHRRLRHKNIVRYLGSASQGGYLKIFMEEVPGGSLSSLLRSVWGPLKDNESTISFYTRQILQGLGYLHDNHIVHRDIKGDNVLINTFSGLLKISDFGTSKRLAGITPCTETFTGTLQYMAPEIIDQGPRGYGKAADIWSLGCTVIEMATGRPPFHELGSPQAAMFQVGMYKVHPPMPSSLSAEAQAFLLRTFEPDPRLRASAQTLLGDPFLQPGKRSRSPSSPRHAPRPSDAPSASPTPSANSTTQSQTFPCPQAPSQHPPSPPKRCLSYGGTSQLRVPEEPAAEEPASPEESSGLSLLHQESKRRAMLAAVLEQELPALAENLHQEQKQEQGARLGRNHVEELLRCLGAHIHTPNRRQLAQELRALQGRLRAQGLGPALLHRPLFAFPDAVKQILRKRQIRPHWMFVLDSLLSRAVRAALGVLGPEVEKEAVSPRSEELSNEGDSQQSPGQQSPLPVEPEQGPAPLMVQLSLLRAETDRLREILAGKEREYQALVQRALQRLNEEARTYVLAPEPPTALSTDQGLVQWLQELNVDSGTIQMLLNHSFTLHTLLTYATRDDLIYTRIRGGMVCRIWRAILAQRAGSTPVTSGP
binds	binds	FLAG-tagged SGK3 transfected into HEK293T cells (enzyme, UniProt Q96BR1 1-496, looked up) MQRDHTMDYKESCPSVSIPSSDEHREKKKRFTVYKVLVSVGRSEWFVFRRYAEFDKLYNTLKKQFPAMALKIPAKRIFGDNFDPDFIKQRRAGLNEFIQNLVRYPELYNHPDVRAFLQMDSPKHQSDPSEDEDERSSQKLHSTSQNINLGPSGNPHAKPTDFDFLKVIGKGSFGKVLLAKRKLDGKFYAVKVLQKKIVLNRKEQKHIMAERNVLLKNVKHPFLVGLHYSFQTTEKLYFVLDFVNGGELFFHLQRERSFPEHRARFYAAEIASALGYLHSIKIVYRDLKPENILLDSVGHVVLTDFGLCKEGIAISDTTTTFCGTPEYLAPEVIRKQPYDNTVDWWCLGAVLYEMLYGLPPFYCRDVAEMYDNILHKPLSLRPGVSLTAWSILEELLEKDRQNRLGAKEDFLEIQNHPFFESLSWADLVQKKIPPPFNPNVAGPDDIRNFDTAFTEETVPYSVCVSSDYSIVNASVLEADDAFVGFSYAPPSEDLFL
